No constants are given. Whether binding was seen depends on the method and setting. Binding seen in cells or lysates may run through a third protein. Some results given as binding are weak or reduced against the parent protein; the word gives no strength.
Target: T1, Full-length wild-type Drs2 (yeast) (UniProt P39524)
T1 sequence: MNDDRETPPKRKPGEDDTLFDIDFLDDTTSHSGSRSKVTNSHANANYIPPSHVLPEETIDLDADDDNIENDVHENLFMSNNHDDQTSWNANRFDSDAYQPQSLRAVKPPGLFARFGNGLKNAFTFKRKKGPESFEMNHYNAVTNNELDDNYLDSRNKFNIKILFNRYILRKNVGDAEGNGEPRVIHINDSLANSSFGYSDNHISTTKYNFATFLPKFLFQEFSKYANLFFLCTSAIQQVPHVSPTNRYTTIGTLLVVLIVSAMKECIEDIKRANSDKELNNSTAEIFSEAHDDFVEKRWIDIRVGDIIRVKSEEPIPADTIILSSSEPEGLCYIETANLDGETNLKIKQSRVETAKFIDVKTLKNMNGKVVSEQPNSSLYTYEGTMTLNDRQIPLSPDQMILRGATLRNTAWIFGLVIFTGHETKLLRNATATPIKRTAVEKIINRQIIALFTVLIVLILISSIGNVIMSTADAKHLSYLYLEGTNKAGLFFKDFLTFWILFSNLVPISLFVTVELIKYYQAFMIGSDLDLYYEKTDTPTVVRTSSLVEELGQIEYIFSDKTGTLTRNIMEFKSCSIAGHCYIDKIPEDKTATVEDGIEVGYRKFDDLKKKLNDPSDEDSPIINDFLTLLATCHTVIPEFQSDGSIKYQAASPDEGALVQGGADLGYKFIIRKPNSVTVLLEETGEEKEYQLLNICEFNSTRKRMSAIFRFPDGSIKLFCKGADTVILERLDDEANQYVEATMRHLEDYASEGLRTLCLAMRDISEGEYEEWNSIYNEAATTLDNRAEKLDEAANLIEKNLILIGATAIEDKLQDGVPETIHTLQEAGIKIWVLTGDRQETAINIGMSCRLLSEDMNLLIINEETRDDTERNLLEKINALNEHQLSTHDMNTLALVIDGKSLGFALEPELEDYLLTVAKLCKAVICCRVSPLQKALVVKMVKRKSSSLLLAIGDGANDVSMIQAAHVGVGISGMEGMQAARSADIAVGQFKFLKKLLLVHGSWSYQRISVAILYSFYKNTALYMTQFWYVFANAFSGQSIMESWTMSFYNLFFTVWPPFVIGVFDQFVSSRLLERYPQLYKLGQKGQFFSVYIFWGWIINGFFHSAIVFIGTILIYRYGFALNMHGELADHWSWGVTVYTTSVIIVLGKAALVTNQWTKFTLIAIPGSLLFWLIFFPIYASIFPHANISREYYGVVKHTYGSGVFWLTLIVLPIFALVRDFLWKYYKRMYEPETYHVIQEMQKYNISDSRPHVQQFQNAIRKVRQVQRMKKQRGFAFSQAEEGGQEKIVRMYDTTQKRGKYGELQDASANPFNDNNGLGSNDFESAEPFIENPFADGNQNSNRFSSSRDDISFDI
Assay: pull-down + SEC

B1: Cdc50 (protein, UniProt P25656 1-391)
chain: MVSLFKRGKAPPLTKEGPTSKKPPNTAFRQQRLKAWQPILSPQSVLPLLIFVACIFTPIGIGLIVSATKVQDLTIDYSHCDTKASTTAFEDIPKKYIKYHFKSKVENKPQWRLTENENGEQSCELQFEIPNDIKKSIFIYYKITNFYQNHRRYVQSFDTKQILGEPIKKDDLDTSCSPIRSREDKIIYPCGLIANSMFNDTFSQVLSGIDDTEDYNLTNKHISWSIDRHRFKTTKYNASDIVPPPNWMKKYPDGYTDENLPDIHTWEEFQVWMRTAAFPKFYKLTLKNESASLPKGKYQMNIELNYPISLFGGTKSFVLTTNGAIGGRNMSLGVLYLIVAGLCALFGIIFLVKLIFQPRAMGDHTYLNFDDEENEDYEDVHAENTTLREIL
Question: Which binding does the source give for B1 here?
Answer: binds
